According to paper PMC9249791, “Molecular dissection of the glutamine synthetase-GlnR nitrogen regulatory circuitry in Gram-positive bacteria” (Nature Communications, 2022):
The exact form of at least one protein or probe is not confirmed. Tags and fusion partners may be left off the protein sequences shown.

Tests used:
[1] = biological target: T1, Sa GlnR full length (UniProt Q53687); test: fluorescence polarization; conditions: 5 mM Mg2+; FP: 25 mM Tris pH 7.5, 100 mM NaCl, 5 mM MgCl2, 1 nM fluoresceinated DNA; temperature not stated; recombinant protein; residues 1-122; protein details: N-terminal His (pET15b)
T1 sequence (looked up): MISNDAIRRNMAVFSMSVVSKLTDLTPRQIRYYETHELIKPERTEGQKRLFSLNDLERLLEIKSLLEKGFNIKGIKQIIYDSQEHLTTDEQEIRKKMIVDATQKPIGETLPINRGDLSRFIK

[2] = biological target: T2, Sa GlnR(1-87) (UniProt Q53687); test: fluorescence polarization; conditions: 5 mM Mg2+, FP: 25 mM Tris pH 7.5, 100 mM NaCl, 5 mM MgCl2, 1 nM fluoresceinated DNA, temperature not stated, recombinant protein, residues 1-87
T2 sequence (looked up): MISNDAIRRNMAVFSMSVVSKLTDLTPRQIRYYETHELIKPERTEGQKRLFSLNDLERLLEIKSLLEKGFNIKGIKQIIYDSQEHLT

[3] = biological target: T3, Lm GlnR(1-87) (UniProt L8DSZ4); test: X-ray crystallography (3.45 A); conditions: 10 mM MgCl2, pH 6.5; recombinant protein; residues 1-87; protein details: N-terminal His removed by thrombin
T3 sequence (looked up): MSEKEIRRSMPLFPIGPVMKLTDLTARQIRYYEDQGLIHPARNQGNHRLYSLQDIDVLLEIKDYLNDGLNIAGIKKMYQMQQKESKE

[4] = biological target: T2, Sa GlnR(1-87); test: X-ray crystallography (2.35 A); conditions: 0.15 M calcium acetate, pH 6.5; recombinant protein; residues 1-87

Row | Sequence | Kd [1] | Kd ([2]; comparison series with K48 mutants) | Kd [2] | binding result [3] | binding result [4]
1 | CGTGTCAGATAATCTGACACG (double strand) [21-mer glnR operator, fluoresceinated] | 75 nM | 9.9 nM | 9.9 nM | – | –
2 | CGTGTCAGATAATCTGACACG (double strand) [21-mer glnR operator, crystallization] | – | – | – | binds | binds
